Laboratory results from PubChem BioAssay AID180 (DTP/NCI, 2004).
The list is a part of this screen's results and no random one: it gathers tests that were run many times, whatever their T/C, doses with no T/C, and many T/C values between a quarter and a half above the control. Further doses and runs are listed elsewhere. T/C gives the treated animals as a percentage of the vehicle group. Schedules are NCI's codes, taken here to give the interval after Q, in days (D) or hours (H), and the number of doses after X. Some T/C values are followed by the survivors on the day toxicity was checked, most often the fifth; without a count, all were alive then. Some entries give survivors of the animals treated and no T/C: the source files T/C as zero there, which appears to mark a toxic dose or a test without result, not a measured value. Counts of survivors are from the toxicity check (mostly the fifth day) where no day follows; animals may have died later. Some entries hold several experiments; their values stand side by side, smallest first.

System: BDF1 mice, Adenocarcinoma 755 s.c., tumor weight T/C
Assay: NCI In Vivo Anticancer Drug Screen. Data for tumor model Adenocarcinoma 755 (subcutaneous) in B6D2F1 (BDF1) mice
Conditions: T/C endpoint: mean tumor weight, higher T/C = larger tumour; for T/C: evaluated on day 12
Outline: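 In vivo antitumor screen on a transplantable tumor line. Result equals the measure in compound-treated animals divided by the same measure in vehicle controls.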

[1] = dose: 300.0 mg/kg/injection, schedule: Q01DX011 (ip), vehicle: carboxymethylcellulose (CMC)
[2] = dose: 600.0 mg/kg/injection, schedule: Q01DX011 (ip), vehicle: carboxymethylcellulose (CMC)
[3] = dose: 15.0 mg/kg/injection, schedule: Q01DX011 (ip), vehicle: methylcellulose (MC)
[4] = dose: 125.0 mg/kg/injection, schedule: Q01DX011 (ip), vehicle: methylcellulose (MC)
[5] = dose: 250.0 mg/kg/injection, schedule: Q01DX011 (ip), vehicle: methylcellulose (MC)

## O=C(CCBr)N1CCN(C(=O)CCBr)CC1
dose: 45.0 mg/kg/injection, schedule: Q01DX011 (ip), vehicle: methylcellulose (MC)
  survivor count: 4 of 10
dose: 90.0 mg/kg/injection, schedule: Q01DX011 (ip), vehicle: carboxymethylcellulose (CMC)
  survivor count: 4 of 10 and 5 of 10

## CCCCCCCCSc1ncnc2c1ncn2CCCC
dose: 187.0 mg/kg/injection, schedule: Q01DX011 (ip), vehicle: saline
  T/C: 135 % of control

## Brc1ncnc2nc[nH]c12
[1]
  survivor count: 6 of 10
[2]
  survivor count: 0 of 10

## Cn1c(N)c(C(=O)CCl)c(=O)n(C)c1=O
dose: 60.0 mg/kg/injection, schedule: Q01DX011 (ip), vehicle: carboxymethylcellulose (CMC)
  survivor count: 2 of 10
dose: 120.0 mg/kg/injection, schedule: Q01DX011 (ip), vehicle: carboxymethylcellulose (CMC)
  survivor count: 0 of 10
dose: 240.0 mg/kg/injection, schedule: Q01DX011 (ip), vehicle: carboxymethylcellulose (CMC)
  survivor count: 0 of 10

## O=c1[nH]cnc2c1ncn2C1CCCC1
dose: 36.25 mg/kg/injection, schedule: Q01DX011 (oral), vehicle: carboxymethylcellulose (CMC)
  T/C: 130 % of control
dose: 72.5 mg/kg/injection, schedule: Q01DX011 (oral), vehicle: carboxymethylcellulose (CMC)
  T/C: 143 % of control [9 of 10 alive]
dose: 145.0 mg/kg/injection, schedule: Q01DX011 (oral), vehicle: carboxymethylcellulose (CMC)
  T/C: 127 % of control [8 of 10 alive]
dose: 290.0 mg/kg/injection, schedule: Q01DX011 (oral), vehicle: carboxymethylcellulose (CMC)
  T/C: 145 % of control [9 of 10 alive]
dose: 450.0 mg/kg/injection, schedule: Q01DX001 (ip), vehicle: carboxymethylcellulose (CMC)
  survivor count: 5 of 10

## CN1CC(=O)NC1=O
dose: 2000.0 mg/kg/injection, schedule: Q01DX011 (ip), vehicle: saline
  survivor count: 3 of 10

## O=C1C(Cl)=C(Cl)C(=O)C2=C1C1c3ccccc3C2c2ccccc21
[1]
  survivor count: 6 of 10
dose: 700.0 mg/kg/injection, schedule: Q01DX011 (ip), vehicle: carboxymethylcellulose (CMC)
  survivor count: 4 of 10

## CC(=O)OCC(=O)[C@@]1(O)CC[C@H]2[C@@H]3CCC4=CC(=O)C=C[C@]4(C)[C@H]3[C@@H](O)C[C@@]21C
dose: 80.0 mg/kg/injection, schedule: Q01DX011 (sc), vehicle: steroid suspending solution
  survivor count: 6 of 10
dose: 101.0 mg/kg/injection, schedule: Q01DX011 (sc), vehicle: steroid suspending solution
  survivor count: 6 of 10

## Nc1cc(C(=O)O)nc(N)n1
[3]
  T/C: 126 % of control [8 of 10 alive]
dose: 62.0 mg/kg/injection, schedule: Q01DX011 (ip), vehicle: methylcellulose (MC)
  survivor count: 5 of 10
[4]
  survivor count: 4 of 10

## CN(C)c1nc(N(C)C)nc(N(C)C)n1
dose: 20.0 mg/kg/injection, schedule: Q01DX011 (ip), vehicle: other
  survivor count: 5 of 10
dose: 28.25 mg/kg/injection, schedule: Q01DX011 (ip), vehicle: other
  T/C: 126 % of control [9 of 10 alive]
dose: 30.0 mg/kg/injection, schedule: Q01DX011 (ip), vehicle: other
  survivor count: 5 of 10
dose: 35.0 mg/kg/injection, schedule: Q01DX011 (ip), vehicle: other
  survivor count: 3 of 10
dose: 38.0 mg/kg/injection, schedule: Q01DX011 (ip), vehicle: other
  survivor count: 3 of 10 and 5 of 10
dose: 43.5 mg/kg/injection, schedule: Q01DX011 (ip), vehicle: other
  survivor count: 5 of 10
dose: 87.0 mg/kg/injection, schedule: Q01DX011 (ip), vehicle: other
  survivor count: 2 of 10
dose: 90.0 mg/kg/injection, schedule: Q01DX011 (iv), vehicle: other
  T/C: 132 % of control
dose: 110.8 mg/kg/injection, schedule: Q01DX011 (ip), vehicle: carboxymethylcellulose (CMC)
  survivor count: 1 of 10
dose: 125.0 mg/kg/injection, schedule: Q01DX011 (iv), vehicle: other
  survivor count: 5 of 12
dose: 250.0 mg/kg/injection, schedule: Q01DX011 (oral), vehicle: other
  survivor count: 4 of 12

## CC(NC(=O)C(Cl)Cl)C(=O)O (configuration not stated)
dose: 1000.0 mg/kg/injection, schedule: Q01DX011 (ip), vehicle: methylcellulose (MC)
  survivor count: 2 of 10

## Nc1nc(Nc2ccccc2Cl)cc(=O)[nH]1
dose: 31.0 mg/kg/injection, schedule: Q01DX011 (ip), vehicle: methylcellulose (MC)
  T/C: 127 % of control [9 of 10 alive]
[4]
  T/C: 147 % of control [8 of 10 alive]
[5]
  survivor count: 4 of 10

## Cc1ccc(C(=O)OCC2OC(n3cnc4c(=S)nc(N)[nH]c43)C(OC(=O)c3ccc(C)cc3)C2OC(=O)c2ccc(C)cc2)cc1 (configuration not stated)
dose: 100.0 mg/kg/injection, schedule: Q01DX011 (ip), vehicle: carboxymethylcellulose (CMC)
  survivor count: 6 of 10
dose: 800.0 mg/kg/injection, schedule: Q01DX011 (ip), vehicle: carboxymethylcellulose (CMC)
  survivor count: 0 of 10

## CC(CNC(=O)CCOS(C)(=O)=O)CNC(=O)CCOS(C)(=O)=O
dose: 400.0 mg/kg/injection, schedule: Q01DX011 (ip), vehicle: carboxymethylcellulose (CMC)
  survivor count: 3 of 10

## O=C1NC(=O)C(c2ccc(Cl)cc2)(c2ccccc2Cl)N1 (configuration not stated)
dose: 1000.0 mg/kg/injection, schedule: Q01DX011 (ip), vehicle: carboxymethylcellulose (CMC)
  survivor count: 6 of 10
dose: 1200.0 mg/kg/injection, schedule: Q01DX011 (ip), vehicle: other
  survivor count: 1 of 10

## CN1CCC(OC(N)=O)CC1
dose: 750.0 mg/kg/injection, schedule: Q01DX011 (ip), vehicle: carboxymethylcellulose (CMC)
  survivor count: 4 of 10

## CCCCn1cnc2c(SCc3ccccn3)nc(N)nc21
dose: 31.25 mg/kg/injection, schedule: Q01DX011 (ip), vehicle: methylcellulose (MC)
  survivor count: 3 of 10

## C/C(=N\NC(=O)c1ccncc1)c1ccccc1Cl
dose: 120.0 mg/kg/injection, schedule: Q01DX011 (ip), vehicle: methylcellulose (MC)
  survivor count: 4 of 10

## Cn1cnc(=S)c2[nH]cnc21
[2]
  survivor count: 6 of 10

## CC(=O)OCC1OC(n2ncc(=O)[nH]c2=O)C(OC(C)=O)C1OC(C)=O (configuration not stated)
dose: 750.0 mg/kg/injection, schedule: Q01DX011 (ip), vehicle: other
  T/C: 125 % of control [9 of 10 alive]

## O=P(N1CCCCC1)(N1CC1)N1CC1
dose: 14.0 mg/kg/injection, schedule: Q01DX011 (ip), vehicle: saline
  survivor count: 6 of 10

## Cc1cnc(SCc2ccccc2Cl)nc1SCc1ccccc1Cl
[3]
  survivor count: 6 of 10
[4]
  survivor count: 5 of 10
[5]
  survivor count: 5 of 10

## CCN(CC)CCNc1ccc(C)c2sc3ccccc3c(=O)c12
dose: 41.4 mg/kg/injection, schedule: Q01DX011 (ip), vehicle: carboxymethylcellulose (CMC)
  T/C: 129 % of control
dose: 103.5 mg/kg/injection, schedule: Q01DX011 (ip), vehicle: carboxymethylcellulose (CMC)
  survivor count: 5 of 10
